For experiment [1], the target named is Tmem203 tagged at its N terminus with the V1 fragment of Venus yellow fluorescent protein (UniProt Q8R235). The experiment is described as follows: split reporter; Venus YFP fragment complementation assay (PCA; V1 and V2 fragments), HeLa cells cotransfected, Venus fluorescence visualized by microscopy.
Experiment [2] has the same target. The experiment is described as follows: split reporter; Venus YFP fragment complementation assay (PCA; V1 and V2 fragments), HEK293T cells cotransfected, Venus fluorescence detected by flow cytometry (mean fluorescence intensity).
The target of a further experiment is FLAG-STIM1 (UniProt Q13586). Put plainly: co-IP; HEK293T cells transfected with the tagged constructs; complexes immunoprecipitated with anti-FLAG-coated beads and blotted for Myc or HA and FLAG.

Protein sequences, listed by entry. Tags and fused reporters are not part of them. Residues count along the entry.
UniProt Q13586, residues 23-685: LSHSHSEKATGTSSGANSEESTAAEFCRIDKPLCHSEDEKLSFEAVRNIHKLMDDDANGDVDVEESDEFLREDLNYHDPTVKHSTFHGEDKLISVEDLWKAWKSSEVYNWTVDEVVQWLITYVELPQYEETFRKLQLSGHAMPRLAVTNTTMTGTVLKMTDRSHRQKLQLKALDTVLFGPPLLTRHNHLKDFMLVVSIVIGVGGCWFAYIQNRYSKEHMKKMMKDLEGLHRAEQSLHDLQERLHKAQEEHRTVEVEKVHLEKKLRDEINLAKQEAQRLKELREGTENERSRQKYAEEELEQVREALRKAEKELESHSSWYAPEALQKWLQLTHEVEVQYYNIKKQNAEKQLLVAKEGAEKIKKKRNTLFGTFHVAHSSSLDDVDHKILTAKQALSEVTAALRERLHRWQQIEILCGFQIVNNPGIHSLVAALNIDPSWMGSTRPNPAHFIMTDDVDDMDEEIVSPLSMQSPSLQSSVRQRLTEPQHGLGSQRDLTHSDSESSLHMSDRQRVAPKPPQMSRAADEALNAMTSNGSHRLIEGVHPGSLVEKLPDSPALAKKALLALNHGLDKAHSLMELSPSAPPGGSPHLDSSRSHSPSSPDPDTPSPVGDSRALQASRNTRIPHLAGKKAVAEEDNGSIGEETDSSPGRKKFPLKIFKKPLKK

No constants are given. Whether binding was seen depends on the method and setting. In cells and extracts the contact can be indirect. Some entries that bind do so weakly or less than the wild type. Where a sequence is shown, tags or fusion partners need not be part of it.

B1: Tmem203 tagged at its N terminus with the V1 fragment of Venus yellow fluorescent protein (protein, UniProt Q8R235 1-136)
chain: MLFSLRELVQWLGFATFEIFVHLLALLVFSVLLALRVDGLTPGLSWWNVFVPFFAADGLSTYFTTIVSVRLFQDGEKRLAVLRLFWVLTVLSLKFVFEMLLCQKLVEQTRELWFGLITSPVFILLQLLMIRACRVN
Turning to B1, the binding result in experiment [1] and in experiment [2] was “binds” throughout.

B2: HA-TMEM203 (protein, UniProt Q8R235 1-136)
chain: MLFSLRELVQWLGFATFEIFVHLLALLVFSVLLALRVDGLTPGLSWWNVFVPFFAADGLSTYFTTIVSVRLFQDGEKRLAVLRLFWVLTVLSLKFVFEMLLCQKLVEQTRELWFGLITSPVFILLQLLMIRACRVN
B2: in the experiment with FLAG-STIM1, the binding entry is “binds”.

The record behind these values is publication PMC6697806.
